The source of these data is article PMC5973557.

Sequences of proteins named here, by UniProt entry; tags and fusion partners are left off.
UniProt Q10411: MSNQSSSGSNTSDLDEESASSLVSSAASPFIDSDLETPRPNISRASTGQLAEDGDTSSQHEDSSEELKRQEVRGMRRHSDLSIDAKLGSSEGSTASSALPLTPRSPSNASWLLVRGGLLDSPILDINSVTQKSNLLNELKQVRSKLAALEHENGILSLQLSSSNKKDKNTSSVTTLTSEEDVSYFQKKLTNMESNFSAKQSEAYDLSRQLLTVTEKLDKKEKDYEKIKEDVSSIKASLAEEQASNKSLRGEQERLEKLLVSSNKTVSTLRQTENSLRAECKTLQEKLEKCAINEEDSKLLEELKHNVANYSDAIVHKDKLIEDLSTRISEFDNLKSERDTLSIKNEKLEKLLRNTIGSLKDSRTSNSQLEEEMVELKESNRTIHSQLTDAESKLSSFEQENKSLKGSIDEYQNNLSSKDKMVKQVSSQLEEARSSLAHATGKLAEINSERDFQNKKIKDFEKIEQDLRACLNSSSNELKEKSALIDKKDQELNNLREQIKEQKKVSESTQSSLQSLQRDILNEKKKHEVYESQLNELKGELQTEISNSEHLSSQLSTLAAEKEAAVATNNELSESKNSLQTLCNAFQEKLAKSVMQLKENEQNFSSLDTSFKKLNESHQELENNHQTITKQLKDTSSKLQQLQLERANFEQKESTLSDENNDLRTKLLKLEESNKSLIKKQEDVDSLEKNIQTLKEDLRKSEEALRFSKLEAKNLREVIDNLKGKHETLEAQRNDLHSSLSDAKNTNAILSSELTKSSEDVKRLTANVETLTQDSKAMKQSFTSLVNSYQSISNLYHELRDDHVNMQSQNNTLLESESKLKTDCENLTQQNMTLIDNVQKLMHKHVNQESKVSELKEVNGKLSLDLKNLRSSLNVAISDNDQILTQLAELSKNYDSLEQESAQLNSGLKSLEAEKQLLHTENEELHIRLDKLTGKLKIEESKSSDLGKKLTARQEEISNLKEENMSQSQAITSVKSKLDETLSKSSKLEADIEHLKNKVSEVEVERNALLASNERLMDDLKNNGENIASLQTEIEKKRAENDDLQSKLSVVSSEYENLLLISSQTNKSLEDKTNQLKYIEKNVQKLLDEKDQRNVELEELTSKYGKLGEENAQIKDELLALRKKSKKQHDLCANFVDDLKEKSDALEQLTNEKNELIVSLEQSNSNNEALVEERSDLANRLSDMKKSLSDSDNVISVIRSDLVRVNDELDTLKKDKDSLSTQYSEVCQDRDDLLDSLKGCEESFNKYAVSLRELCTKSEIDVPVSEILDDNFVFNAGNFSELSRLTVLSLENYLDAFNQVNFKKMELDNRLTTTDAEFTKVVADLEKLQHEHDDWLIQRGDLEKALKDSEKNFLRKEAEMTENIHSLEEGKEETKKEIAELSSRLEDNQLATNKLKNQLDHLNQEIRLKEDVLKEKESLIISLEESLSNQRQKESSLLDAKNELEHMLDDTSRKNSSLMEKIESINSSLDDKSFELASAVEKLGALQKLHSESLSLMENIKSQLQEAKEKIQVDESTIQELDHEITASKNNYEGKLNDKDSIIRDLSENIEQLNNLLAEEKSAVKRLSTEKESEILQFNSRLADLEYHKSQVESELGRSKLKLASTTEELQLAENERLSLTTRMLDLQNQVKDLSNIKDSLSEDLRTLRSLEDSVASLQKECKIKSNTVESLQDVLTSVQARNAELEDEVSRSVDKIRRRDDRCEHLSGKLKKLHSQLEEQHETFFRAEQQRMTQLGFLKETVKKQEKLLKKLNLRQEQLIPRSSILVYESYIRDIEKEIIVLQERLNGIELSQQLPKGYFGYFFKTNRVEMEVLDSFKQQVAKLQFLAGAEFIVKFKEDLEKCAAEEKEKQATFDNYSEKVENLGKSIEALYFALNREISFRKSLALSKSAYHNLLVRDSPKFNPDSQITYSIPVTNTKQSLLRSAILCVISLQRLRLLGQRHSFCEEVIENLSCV

This experiment has as its target T1, GST-Dms1 (S. pombe) (UniProt O74466).
T1 sequence: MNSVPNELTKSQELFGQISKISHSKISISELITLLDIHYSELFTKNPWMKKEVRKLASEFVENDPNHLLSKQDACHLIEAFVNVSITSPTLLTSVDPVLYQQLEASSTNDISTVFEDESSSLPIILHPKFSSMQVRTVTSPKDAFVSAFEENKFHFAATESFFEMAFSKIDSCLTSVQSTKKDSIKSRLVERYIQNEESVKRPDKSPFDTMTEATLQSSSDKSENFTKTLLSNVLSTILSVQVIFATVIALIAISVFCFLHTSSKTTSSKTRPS
The experiment in a line: pull-down; cell extracts from vegetative S. pombe cells expressing GST or GST-Dms1; precipitates analysed by western blotting with anti-GFP or anti-Spo15 antibody (S3 Fig B). Background: In western blotting, separated proteins are transferred to a membrane and probed.

Results are given in words; binding and its absence hold for the method and conditions named. Binding seen in cells or lysates may run through a third protein. Where a sequence is shown, tags or fusion partners need not be part of it.

Regarding Spo15 (from UniProt Q10411 1-1957), the binding result is recorded as “no binding”.
